Library screen at single concentrations

Chains of the proteins cited; added tags and fusions are not shown. Residues count along the entry.
UniProt A4I591, 1-473: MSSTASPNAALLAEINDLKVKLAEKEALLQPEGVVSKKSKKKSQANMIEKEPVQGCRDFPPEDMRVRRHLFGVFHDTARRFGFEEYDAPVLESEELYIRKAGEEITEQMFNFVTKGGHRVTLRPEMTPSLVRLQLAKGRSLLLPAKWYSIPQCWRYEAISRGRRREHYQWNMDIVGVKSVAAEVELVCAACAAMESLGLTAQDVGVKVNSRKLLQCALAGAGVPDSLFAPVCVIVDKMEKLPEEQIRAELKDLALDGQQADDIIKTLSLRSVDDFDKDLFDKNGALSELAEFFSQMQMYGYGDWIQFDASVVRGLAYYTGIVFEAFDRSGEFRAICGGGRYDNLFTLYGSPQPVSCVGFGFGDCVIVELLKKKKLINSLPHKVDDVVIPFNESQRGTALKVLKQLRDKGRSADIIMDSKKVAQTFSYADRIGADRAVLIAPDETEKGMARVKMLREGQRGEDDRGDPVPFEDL
UniProt P9WNZ1, whole entry: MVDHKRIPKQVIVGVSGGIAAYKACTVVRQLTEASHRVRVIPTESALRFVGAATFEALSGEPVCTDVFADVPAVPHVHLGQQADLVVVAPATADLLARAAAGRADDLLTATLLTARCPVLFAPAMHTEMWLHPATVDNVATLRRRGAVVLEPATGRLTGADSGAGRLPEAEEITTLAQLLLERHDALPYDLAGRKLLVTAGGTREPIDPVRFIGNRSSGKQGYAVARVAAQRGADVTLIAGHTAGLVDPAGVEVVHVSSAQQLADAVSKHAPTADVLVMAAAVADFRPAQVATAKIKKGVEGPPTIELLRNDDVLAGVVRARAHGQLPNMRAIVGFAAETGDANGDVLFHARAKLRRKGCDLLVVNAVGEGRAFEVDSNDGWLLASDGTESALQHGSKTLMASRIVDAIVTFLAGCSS
UniProt Q8IDJ8, 1-583: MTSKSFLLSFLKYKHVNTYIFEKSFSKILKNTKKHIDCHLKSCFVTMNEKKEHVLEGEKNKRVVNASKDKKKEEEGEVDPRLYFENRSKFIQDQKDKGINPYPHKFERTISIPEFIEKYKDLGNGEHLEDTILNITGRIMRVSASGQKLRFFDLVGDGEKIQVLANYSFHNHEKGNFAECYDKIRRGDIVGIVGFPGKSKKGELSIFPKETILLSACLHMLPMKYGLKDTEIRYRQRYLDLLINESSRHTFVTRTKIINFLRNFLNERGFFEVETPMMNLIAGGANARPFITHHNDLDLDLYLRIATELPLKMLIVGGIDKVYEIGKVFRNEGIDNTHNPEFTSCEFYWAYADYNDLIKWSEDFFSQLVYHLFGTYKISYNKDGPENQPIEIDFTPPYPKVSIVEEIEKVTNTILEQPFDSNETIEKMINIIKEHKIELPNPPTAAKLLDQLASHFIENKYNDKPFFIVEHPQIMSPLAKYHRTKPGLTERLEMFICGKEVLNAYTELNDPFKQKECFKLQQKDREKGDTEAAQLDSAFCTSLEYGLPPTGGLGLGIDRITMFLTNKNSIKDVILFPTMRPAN
UniProt P9WFT3, whole entry: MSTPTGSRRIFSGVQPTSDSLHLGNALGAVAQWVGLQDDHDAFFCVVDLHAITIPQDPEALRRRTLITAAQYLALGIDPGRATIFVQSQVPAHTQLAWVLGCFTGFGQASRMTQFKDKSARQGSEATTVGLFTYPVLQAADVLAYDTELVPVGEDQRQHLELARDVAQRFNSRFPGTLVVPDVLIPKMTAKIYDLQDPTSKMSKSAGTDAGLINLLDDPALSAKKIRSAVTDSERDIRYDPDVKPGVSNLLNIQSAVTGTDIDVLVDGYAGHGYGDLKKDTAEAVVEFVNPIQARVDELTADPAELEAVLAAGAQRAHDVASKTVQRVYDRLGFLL

A: 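Histidine-tRNA ligase, Leishmania infantum (UniProt A4I591). Enzyme assay of histidyl-tRNA synthetase; the read-out is not stated. Compounds at 30 µM. Direction is inferred from retests: higher values go with stronger inhibition. The assay is labelled LdHisRS but filed under L. infantum. Size under these conditions: about 69,000 compounds, about 410 of them at 50% or above in at least one test.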
B: 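Coenzyme A biosynthesis protein CoaBC, Mycobacterium tuberculosis (UniProt P9WNZ1). Enzyme assay of CoaBC with a phosphate dye (Biomol Green) read at 650 nm. Concentration: 30 µM. Higher reads as stronger inhibition, judged from the few compounds that gave an IC50. Most strong results did not repeat in a second test. Of about 67,000 compounds tested this way, about 40 (0.06%) reached 50% or more in at least one test.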
C: 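Enzyme assay of the cytosolic lysyl-tRNA synthetase in 384-well plates, read by luminescence. Target: Lysine-tRNA ligase, Plasmodium falciparum 3D7 (UniProt Q8IDJ8). Tested at 30 µM. Direction is inferred from only a few compounds that gave an IC50; most scored high, so higher reads as stronger inhibition. Size under these conditions: about 69,000 compounds, about 49 of them at 50% or above in at least one test.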
D: 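Tryptophan-tRNA ligase, Mycobacterium tuberculosis (UniProt P9WFT3). Enzyme assay of tryptophanyl-tRNA synthetase; the read-out is not stated. Compounds at 10 µM. Direction is not recorded; retested compounds ran higher, which suggests that high means inhibition. Size under these conditions: about 65,000 compounds, about 64 of them at 50% or above in at least one test.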

Each number is a percent effect as filed. How 0% and 100% were set is not recorded. Most values in the screen are low, and negative values occur. Compounds were drawn at random from those tested, without regard to their results.

Result for COc1ccc(CCNc2cc(-c3nc(C)no3)ccn2)cc1OC was A: 3.333%; B: 1.595%; C: -2.388%; D: -5.922%.
Result for Cc1ccc(CC(=O)NC(C)C(=O)N2CCS(=O)(=O)CC2)cc1 (centres undefined) was A: 7.692%; B: -4.904%; C: -6.406%; D: -7.043%.
Result for Cc1cccc(C(=O)N2CCCC2)c1NCC(=O)NC(C)(C#N)C1CC1 (centres undefined) was A: 1.408%; C: 1.649%; D: 9.788%.
Result for CN(C)CC1CN(Cc2cccc(C(=O)N(C)C)c2)CCO1 (centres undefined) was A: 21.92%; B: 0.4819%; C: 2.632%; D: -2.638%.
Result for CCc1ccc(C(=O)O)cc1S(=O)(=O)Nc1c(C)ccn(C)c1=O was A: 43.59%; B: -2.521%; C: 12.83%; D: 2.744%.
Result for COc1cccc(CN(C)C(C)C(=O)Nc2nc(C)c(C)s2)c1 (centres undefined) was A: 1.667%; B: -2.45%; C: 1.607%; D: -0.4989%.
Result for Cc1cnc(C(=O)N2CCCC(Cn3cc(CC(C)C)nn3)C2)cn1 (centres undefined) was A: 6.667%; B: 5.122%; C: 3.216%; D: 2.037%.
Result for CNC(=O)[C@H]1CO[C@H]2CCN(c3ncc(F)cn3)C[C@H]2C1 was A: -5.556%; B: -1.603%; C: 5.189%; D: 0.08865%.
Result for C[S+]([O-])CCCNC(=O)c1cc(Br)c2c(c1)OCCO2 (centres undefined) was A: 16.5%; B: 3.571%; C: -0.356%; D: 0.5329%.
Result for CN(C)CCOc1cccc(CN2CCCC3(C2)CN(C)C(=O)O3)c1 (centres undefined) was A: 18.09%; B: -8.754%; C: 4.67%; D: -1.032%.
Result for CC(C)N1[C@H](Cn2cccn2)C[C@@H]2CN(C3CCOCC3)CC[C@@H]21 was A: 22%; B: 5.943%; C: 5.52%; D: 3.294%.
Result for CCCc1nnc(N2CCC3(CC2)CC(=O)NC(=O)C3)o1 was A: 16.81%; B: 0.6369%; C: 5.828%; D: 1.926%.
Result for Cc1nn(CC(=O)N2CCN(Cc3cn(C)nc3C)CC2)cc1Br was A: 7.692%; B: 1.446%; C: 0.3661%; D: 3.43%.
Result for CC(O)CN1CCC(CN(C)Cc2cc(C#N)ccc2F)CC1 (centres undefined) was A: 12.68%; C: 5.145%; D: -1.715%.
Result for COc1ccc(-c2nc(CNC3CCc4nc(C)nn4C3)no2)cc1 (centres undefined) was A: 9.821%; B: 4.215%; C: 1.695%; D: -5.356%.
Result for CO[C@@H]1CCN(Cc2cccs2)[C@@H]2CN(Cc3ccncc3)C[C@@H]21 was A: 30.19%; B: 1.463%; C: 5.123%.
Result for CCn1nc2ccc(S(=O)(=O)N3CCSCC3)cn2c1=O was A: 12.09%; B: -4.481%; C: -1.378%; D: 2.156%.
Result for COc1cccc(CN2CCc3nc(C(=O)NCC(C)C)sc3CC2)c1 was A: 17.95%; B: 16.25%; C: 0.4406%; D: 11.5%.
Result for O=C(CN1CCc2c(ncn2C2CC2)C1)NC1CCOCC1 was A: 13.68%; B: -6.166%; C: 0.335%; D: 0.6246%.
Result for CNc1cccc(C2CCN(C(C)=O)CC2)n1 was A: 12.86%; B: 2.913%; C: 0.89%; D: -2.748%.

The last 2 entries again:

SMILES,A,B,C,D
O=C(CN1CCc2c(ncn2C2CC2)C1)NC1CCOCC1,13.68,-6.166,0.335,0.6246
CNc1cccc(C2CCN(C(C)=O)CC2)n1,12.86,2.913,0.89,-2.748

The values are deposited in ChEMBL (CHEMBL3988442, “University of Dundee, Small-Polar-MMV Screening Library” (2021)).